In article PMC4245945:
No constants are given. Whether binding was seen depends on the method and setting.

The chains behind the UniProt entries cited, without tags or fusion partners.
UniProt P0A7I0: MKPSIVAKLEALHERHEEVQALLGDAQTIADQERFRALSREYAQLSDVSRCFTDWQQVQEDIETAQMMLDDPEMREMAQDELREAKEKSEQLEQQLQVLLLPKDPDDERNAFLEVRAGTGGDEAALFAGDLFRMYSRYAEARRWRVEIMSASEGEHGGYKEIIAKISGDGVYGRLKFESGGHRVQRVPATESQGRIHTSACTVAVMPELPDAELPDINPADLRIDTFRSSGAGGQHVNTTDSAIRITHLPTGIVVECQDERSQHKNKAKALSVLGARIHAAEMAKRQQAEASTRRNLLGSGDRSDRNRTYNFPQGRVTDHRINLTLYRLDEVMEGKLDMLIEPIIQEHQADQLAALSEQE

Target: T1, ArfA-ΔC17 (E. coli) (UniProt P36675)
T1 sequence: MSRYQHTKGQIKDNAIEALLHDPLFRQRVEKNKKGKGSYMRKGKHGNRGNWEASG
Assay: ultrafiltration assay (centrifugal ultrafiltration, 100 kDa; SDS-PAGE of the ribosome fraction); 70S ribosomes (20 pmol) stalled with tRNAfMet and mRNA + 0 or mRNA + 21, mixed with ArfA (20 pmol) and release factor (RF2 0-50 pmol); 80 mM Tris-HCl pH 7.5, 7 mM MgCl2, 150 mM NH4Cl, 2.5 mM dithiothreitol, 2 mM spermidine; 37°C, 10 min; free factors removed, gel stained with Oriole; both purified

## RF1 (from UniProt P0A7I0 1-360)
  binding: no binding
